In PubChem BioAssay AID493014 (National Center for Advancing Translational Sciences (NCATS), 2011):
The list shows a part of the results. Shown are side measurements of this screen, not its main read-out; they come without a call. Most of these compounds were active or inconclusive in the main read-out, so they are no random draw. Potencies come from curve fits of mixed quality, noted in brackets.

Experiment: qHTS Assay to Find Inhibitors of Chronic Active B-Cell Receptor Signaling
Settings: ABC-DLBCL IkBa-CBG/CBR reporter, luminescence ratio (green luciferase fused to IkBa over red control in TMD8 lymphoma cells), 4 h
Method in brief: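 TMD8 human ABC-DLBCL cells with doxycycline-inducible IκBα–green luciferase fusion and unfused red luciferase, in 0.5% FBS medium; compounds up to 46 uM, 4 h at 37C. Green/red luminescence ratio, filter-overlap corrected, fitted to concentration-response curves.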

[1] = measured here: CBR red luminescence, cell number
[2] = measured here: IkBa-CBG green luminescence

Row | Structure (SMILES) | AC50 [1] | AC50 [2]
1 | O=S(=O)(Nc1nc2ccccc2nc1Cl)c1ccc2ccccc2c1 | 29.1 µM [falling, single point] | –
2 | CCOC(=O)C(C)n1cnc2c(nnn2Cc2ccc(Cl)cc2)c1=O (stereo not given) | 0.13 µM [rising, full curve, poor fit] | –
3 | CC(C)NCCCCOc1ccc(Br)cc1Cl | – | 12.6 µM [rising, partial curve, poor fit]
4 | COc1ccc(OC)c(C2Nc3c(Cl)ccc(C(=O)O)c3C3C=CCC32)c1 (stereo not given) | 5.62 µM [falling, single point] | –
5 | COc1ccc(NS(=O)(=O)c2ccc(NC(=S)NC(=O)/C=C/c3ccccc3)cc2)nn1 | 14.6 µM [falling, partial curve] | –
6 | CCCN1CCC(=NNc2ccc(S(N)(=O)=O)cc2[N+](=O)[O-])CC1 | 11.2 µM [falling, partial curve] | –
7 | O=C(c1cccc(S(=O)(=O)N2CCOCC2)c1)N(CCc1ccccc1)Cc1ccccc1 | 14.6 µM [falling, single point] | –
8 | Cc1cccc(C2C3=C(Nc4[nH]n(-c5ccccc5)c(=O)c42)c2ccccc2C3=O)c1 (stereo not given) | 7.31 µM [rising, partial curve, poor fit] | 18.4 µM [rising, partial curve, poor fit]
9 | O=C(N/N=C/c1ccccn1)c1cc(Br)ccc1O | 10 µM [falling, partial curve, poor fit] | 35.5 µM [falling, single point]
10 | NC(=O)c1cc2c(s1)-c1cc(Cl)ccc1SC2 | 1.41 µM [falling, partial curve, poor fit] | –
11 | COCCN(Cc1ccccc1)C(=O)c1c(C)nn(-c2ccccc2)c1C | 3.55 µM [rising, partial curve, poor fit] | –
12 | O=C(/C=C/c1ccc(F)cc1)NC(=S)NNC(=O)c1cccnc1 | 7.31 µM [falling, partial curve] | –
13 | COc1ccc(C(CC(=O)c2ccc(C)cc2)C(C#N)C#N)cc1OC (stereo not given) | 23.1 µM [falling, single point] | 32.6 µM [rising, partial curve, poor fit]
14 | CCN(CC)c1ccc(C(=S)NC2CCCCC2)cc1 | 0.447 µM [rising, full curve, poor fit] | –
15 | COc1ccc(C(=O)OCC(=O)Nc2ccc(F)c(F)c2)cc1OC | 23.1 µM [rising, single point] | 16.4 µM [falling, partial curve, poor fit]
16 | S=c1nc(-c2ccccc2)n(CCN2CCOCC2)c2c1CCCC2 | 20 µM [falling, partial curve, poor fit] | –
17 | O=C(Nc1cccc(F)c1)C1CCCN1S(=O)(=O)c1cccc2cccnc12 (stereo not given) | 1.84 µM [rising, single point] | –
18 | CCOc1ccccc1N1CC(C(=O)Nc2ccc(C(=O)O)cc2)CC1=O (stereo not given) | 0.651 µM [falling, full curve, poor fit] | 0.92 µM [rising, full curve, poor fit]
19 | O=C(Cn1c(NCCCO)nc2ccccc21)c1ccc(Cl)cc1 | 4.47 µM [falling, partial curve, poor fit] | –
20 | CCOC(=O)N1CCC(NC(=O)CSCc2nc(-c3sccc3C)oc2C)CC1 | 2.06 µM [rising, single point] | –
21 | Cc1cccc(C(C)Nc2ccc([N+](=O)[O-])cn2)c1 (stereo not given) | 3.55 µM [rising, single point] | –

Row | Structure (SMILES) | AC50 [1] | AC50 [2]
22 | COc1cc(/C=N/NC(=O)c2ccc(Cl)cc2)ccc1OCC(=O)N1CC(C)OC(C)C1 (stereo not given) | 11.2 µM [falling, partial curve, poor fit] | 14.1 µM [rising, partial curve, poor fit]
23 | Cc1cc(C)nc(Sc2nc(C)nc3c2oc2ccccc23)n1 | 35.5 µM [falling, single point] | –
24 | Cc1cccc(OCC(=O)Nc2ccc(C(=O)O)cc2NC(=O)COc2cccc(C)c2)c1 | 8.91 µM [falling, partial curve, poor fit] | –
25 | Nc1ccc2oc(-c3cccc4ccccc34)nc2c1 | 15.8 µM [falling, single point] | –
26 | Cc1ccc(NC(=O)Cn2cc(C(=O)C3CC3)c3ccccc32)c(C)c1 | 6.31 µM [rising, single point] | –
27 | COc1ccc(C2CC(c3cccs3)=NN2C(=O)CN2CCCCC2)cc1 (stereo not given) | 20 µM [rising, partial curve, poor fit] | –
28 | CC(C)(C)NC(=O)Cn1c(SCC(=O)Nc2nccs2)nc2ccccc21 | 1.84 µM [falling, partial curve, poor fit] | –
29 | Cc1ccc(C(=O)NC(=S)NNC(=O)CC#N)cc1 | 14.1 µM [rising, single point] | –
30 | CCOC(=O)Nc1nnc(CCc2ccccc2)s1 | 8.91 µM [rising, partial curve] | –
31 | c1ccc(SCCN2CCc3ccccc3C2)cc1 | 13 µM [rising, partial curve, poor fit] | –
32 | O=C(Nc1ccccc1O)c1cc(S(=O)(=O)N2CCOCC2)c(Cl)cc1Cl | 17.8 µM [falling, single point] | –
33 | COc1ccc(NC(=O)c2cc3c(COC(C)=O)cnc(C)c3oc2=Nc2cccc(C(=O)O)c2)c(OC)c1 | 17.8 µM [rising, single point] | –
34 | Clc1ccc(NCc2ccsc2)cc1 | 11.2 µM [rising, partial curve, poor fit] | –
35 | O=C(/C=C/c1ccccc1)c1c[nH]c2ccccc12 | 10 µM [falling, partial curve, poor fit] | –
36 | Cc1csc(Nc2ccc(Cl)cc2)[n+]1-c1ccc(Cl)cc1 | 7.08 µM [rising, partial curve] | –
37 | O=C(Nc1cccc(F)c1)N(Cc1ccc(Cl)cc1)CC(O)C(F)(F)F (stereo not given) | 29.1 µM [falling, single point] | 32.6 µM [rising, partial curve, poor fit]
38 | COc1ccc(-c2csc(Cc3nc(O)cs3)n2)cc1 | 11.2 µM [rising, single point] | –
39 | O=C(/C=C/c1ccc(F)cc1)Nc1nc2ccccc2[nH]1 | 2.59 µM [falling, full curve] | 23.1 µM [rising, partial curve, poor fit]
40 | CCCN(CC(=O)Nc1ccccc1OC)C(=O)c1cc(S(=O)(=O)NCc2ccccc2)ccc1C | 1.58 µM [falling, partial curve, poor fit] | –
41 | O=C(Nc1cccc2ccccc12)c1ccc([N+](=O)[O-])o1 | 11.2 µM [falling, partial curve, poor fit] | –
42 | CCc1ccc(C(=O)CN2C(=O)C(C)N(c3ccc(C)cc3)C2=O)cc1 (stereo not given) | 25.9 µM [rising, single point] | –

Row | Structure (SMILES) | AC50 [1] | AC50 [2]
43 | S=C(Nc1ccc(Cl)cc1)NC1CC2CCCC(C1)N2C1CC1 (stereo not given) | 6.51 µM [rising, single point] | –
44 | COc1ccc(NC(=O)/C(C#N)=C\c2cc(OC)c(OCc3ccc(C(=O)O)cc3)cc2Br)cc1 | 0.794 µM [falling, full curve, poor fit] | –
45 | Cc1ccc(CNC(=O)C2CC(c3ccccc3F)=NO2)cc1 (stereo not given) | 3.98 µM [rising, full curve, poor fit] | –
46 | O=C(c1ccccc1)C(CCC(CN1CCOCC1)C(=O)c1ccccc1)CN1CCOCC1 (stereo not given) | 3.98 µM [falling, full curve] | –
47 | CCOC(=O)c1c(C)[nH]c(C(=O)N/N=C/c2cccc(OC)c2)c1C | 0.461 µM [falling, partial curve, poor fit] | –
48 | COC(=O)c1c(-c2ccc(Br)cc2)noc1N | 29.1 µM [falling, single point] | –
49 | O=c1[nH]c(SCc2ccccc2Cl)nc2[nH]ncc12 | 35.5 µM [falling, single point] | –
50 | O=C(Nc1cccc(F)c1)Nc1ccc(Cl)cn1 | 1.41 µM [rising, partial curve] | –
51 | CNC(=S)NNc1nncc2ccccc12 | 22.4 µM [falling, single point] | 22.4 µM [falling, single point]
52 | O=C(NNC(=S)NC1CCCCC1)c1ccccc1O | 8.91 µM [falling, partial curve] | –
53 | Cc1cccc(NC(=O)c2sc(Cl)nc2-c2ccccc2)c1 | 10.3 µM [falling, partial curve, poor fit] | –
54 | CC(C)=NNC(=O)c1c(O)c2ccccc2[nH]c1=O | 3.98 µM [falling, full curve, poor fit] | –
55 | O=C(NCC1CCCO1)c1cc(-c2ccc(F)cc2)no1 (stereo not given) | 6.31 µM [falling, partial curve] | –
56 | COC(=O)c1ccc(CSc2nc3cc(Cl)ccc3s2)o1 | 11.2 µM [rising, partial curve] | –
57 | Brc1ccc2[nH]c3c(NCc4ccccn4)ncnc3c2c1 | 17.8 µM [falling, partial curve, poor fit] | –
58 | CN(C)c1ccc(-c2nc3cc(N)ccc3o2)cc1 | 15.8 µM [falling, partial curve] | –
59 | CCN(CC)C(=O)CSc1nc2ccccc2c(=O)n1OC(C)C | 5.17 µM [rising, partial curve, poor fit] | –
60 | Cc1cc(S(=O)(=O)NC2CCCCC2)ccc1OCC(=O)NCc1cccnc1 | 0.146 µM [falling, full curve, poor fit] | –
61 | CC1CCN(C(=O)CSc2ccc(-c3ccc4c(c3)OCCO4)nn2)CC1 | 12.6 µM [falling, partial curve, poor fit] | –

Given with each value named: part of the list above.
CC(C)=NNC(=O)c1c(O)c2ccccc2[nH]c1=O
  AC50 [1]: 3.98 µM [falling, full curve, poor fit]
Brc1ccc2[nH]c3c(NCc4ccccn4)ncnc3c2c1
  AC50 [1]: 17.8 µM [falling, partial curve, poor fit]
CCN(CC)C(=O)CSc1nc2ccccc2c(=O)n1OC(C)C
  AC50 [1]: 5.17 µM [rising, partial curve, poor fit]
